Data from US20160326264A1.
Results are given in words; binding and its absence hold for the method and conditions named. Some entries that bind do so weakly or less than the wild type.

Sequences of proteins named here, by UniProt entry; tags and fusion partners are left off.
UniProt Q04609: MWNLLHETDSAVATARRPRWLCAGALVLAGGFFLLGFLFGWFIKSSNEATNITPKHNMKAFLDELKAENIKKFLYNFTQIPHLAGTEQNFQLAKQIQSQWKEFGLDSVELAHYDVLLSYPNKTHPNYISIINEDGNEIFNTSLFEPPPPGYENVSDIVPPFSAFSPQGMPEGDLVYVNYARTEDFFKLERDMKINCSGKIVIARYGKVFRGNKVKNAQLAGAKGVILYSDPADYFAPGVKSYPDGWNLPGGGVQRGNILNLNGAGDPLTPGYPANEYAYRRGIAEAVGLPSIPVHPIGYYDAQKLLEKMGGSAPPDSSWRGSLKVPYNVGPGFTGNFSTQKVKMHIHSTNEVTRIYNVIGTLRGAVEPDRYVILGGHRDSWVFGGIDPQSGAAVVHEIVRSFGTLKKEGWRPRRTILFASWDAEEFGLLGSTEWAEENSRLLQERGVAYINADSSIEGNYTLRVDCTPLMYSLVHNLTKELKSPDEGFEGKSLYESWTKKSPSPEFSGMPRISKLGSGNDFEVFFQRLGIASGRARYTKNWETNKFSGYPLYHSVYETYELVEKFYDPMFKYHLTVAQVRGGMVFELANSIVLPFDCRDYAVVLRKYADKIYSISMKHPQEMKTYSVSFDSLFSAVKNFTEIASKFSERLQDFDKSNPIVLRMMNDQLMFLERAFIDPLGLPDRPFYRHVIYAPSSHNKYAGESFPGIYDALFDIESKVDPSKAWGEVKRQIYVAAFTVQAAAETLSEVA

Assays:
[1] = target: endogenous human PSMA (prostate-specific membrane antigen) expressed on LNCaP human prostate cancer cells (human) (UniProt Q04609); assay: flow cytometry on LNCaP cells
[2] = target: endogenous human PSMA (prostate-specific membrane antigen) expressed on LNCaP human prostate cancer cells (human) (UniProt Q04609); assay: flow cytometry on PSMA-expressing LNCaP cells, PE anti-human IgG detection, MFI (FL2) against IgG concentration (nM)

binding [1]: binds
binding [2]: binds
B1: anti-PSMA antibody PSGB11 (antibody, V domains shown)
VH: QVQLVQSGGGLVQPGGSLRLSCAASGFTFSSYWMSWVRQAPGKGLEWVANIKQDGSEKYYVDSVKGRFTISRDNAKNSLYLQMNSLRAEDTAVYYCARVWDYYYDSSGDAFDIWGQGTMVTVSS
VL: EIVLTQSPSTLSASVGDRVTITCRASQSISSWLAWYQQKPGKAPRLLIYAASILQRGVPSRFSGSGSETDFTLTISSLQPEDLATYYCQETYSNLFTFGPGTKVDIK
